In PMC12583604:
Results are given in words; binding and its absence hold for the method and conditions named. Binding seen in cells or lysates may run through a third protein. These calls come from enrichment with a bait or labelling near it, and not all partners need be listed.

Chains of the proteins cited; added tags and fusions are not shown.
UniProt Q6BDS2: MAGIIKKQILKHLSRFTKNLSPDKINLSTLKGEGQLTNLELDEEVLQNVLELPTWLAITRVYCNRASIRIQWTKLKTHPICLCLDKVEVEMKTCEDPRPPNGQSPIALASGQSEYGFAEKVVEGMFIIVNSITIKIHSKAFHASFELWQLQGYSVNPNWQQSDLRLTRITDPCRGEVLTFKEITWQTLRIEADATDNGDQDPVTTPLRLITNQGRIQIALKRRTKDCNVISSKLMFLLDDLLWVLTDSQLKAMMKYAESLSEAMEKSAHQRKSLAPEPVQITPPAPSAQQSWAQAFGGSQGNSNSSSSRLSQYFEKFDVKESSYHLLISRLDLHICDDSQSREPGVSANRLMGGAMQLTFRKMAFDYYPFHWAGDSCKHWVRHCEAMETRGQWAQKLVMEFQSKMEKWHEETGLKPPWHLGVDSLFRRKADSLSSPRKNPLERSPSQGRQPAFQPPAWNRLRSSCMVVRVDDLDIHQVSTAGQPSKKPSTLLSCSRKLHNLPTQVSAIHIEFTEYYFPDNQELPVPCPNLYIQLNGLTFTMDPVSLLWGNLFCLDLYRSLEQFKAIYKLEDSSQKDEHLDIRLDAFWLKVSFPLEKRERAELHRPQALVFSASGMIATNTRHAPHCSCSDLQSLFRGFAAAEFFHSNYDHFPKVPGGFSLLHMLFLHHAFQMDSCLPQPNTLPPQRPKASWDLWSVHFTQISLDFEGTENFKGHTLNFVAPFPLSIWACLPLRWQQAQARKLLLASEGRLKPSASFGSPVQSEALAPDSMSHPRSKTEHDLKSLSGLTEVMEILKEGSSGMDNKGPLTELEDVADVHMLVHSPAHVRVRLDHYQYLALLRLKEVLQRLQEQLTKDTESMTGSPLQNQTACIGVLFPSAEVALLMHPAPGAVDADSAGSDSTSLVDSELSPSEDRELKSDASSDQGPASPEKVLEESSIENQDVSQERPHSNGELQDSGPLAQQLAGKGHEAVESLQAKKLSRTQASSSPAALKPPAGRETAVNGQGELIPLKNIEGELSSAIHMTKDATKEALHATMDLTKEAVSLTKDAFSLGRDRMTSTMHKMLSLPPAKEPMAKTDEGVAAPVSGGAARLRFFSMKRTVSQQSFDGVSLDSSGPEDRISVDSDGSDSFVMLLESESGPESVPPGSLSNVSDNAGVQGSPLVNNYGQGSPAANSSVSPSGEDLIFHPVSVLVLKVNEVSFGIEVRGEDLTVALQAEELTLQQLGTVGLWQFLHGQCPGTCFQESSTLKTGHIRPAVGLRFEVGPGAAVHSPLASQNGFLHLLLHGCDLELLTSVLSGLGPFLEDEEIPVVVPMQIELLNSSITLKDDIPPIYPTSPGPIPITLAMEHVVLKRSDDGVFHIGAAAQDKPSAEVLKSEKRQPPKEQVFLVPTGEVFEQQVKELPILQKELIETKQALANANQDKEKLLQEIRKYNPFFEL
UniProt O95166: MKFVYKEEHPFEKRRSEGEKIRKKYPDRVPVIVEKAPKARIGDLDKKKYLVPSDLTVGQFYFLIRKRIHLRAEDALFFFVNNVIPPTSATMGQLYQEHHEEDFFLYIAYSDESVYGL

Biological target: bridge-like lipid transfer protein 3A (BLTP3A), endogenously tagged with an internal V5 epitope (BLTP3A^V5) (human (endogenous in A549)) (UniProt Q6BDS2)
Assay: affinity purification with mass spectrometry; anti-V5 magnetic resin (V5-Trap) on lysates of A549 cells with endogenously tagged BLTP3A^V5; 50 mM Tris pH 7.6, 150 mM NaCl, 1% Triton X-100, 4 °C, 2 h; unedited A549 cells as control; n = 3; dia-PASEF mass spectrometry

Row | binding | Molecule
1 | binds | GABARAP (from UniProt O95166 1-117)
2 | binds | melanophilin (MLPH) (protein, UniProt Q9BV36 1-600) MGKKLDLSKLTDEEAQHVLEVVQRDFDLRRKEEERLEALKGKIKKESSKRELLSDTAHLNETHCARCLQPYQLLVNSKRQCLECGLFTCKSCGRVHPEEQGWICDPCHLARVVKIGSLEWYYEHVKARFKRFGSAKVIRSLHGRLQGGAGPELISEERSGDSDQTDEDGEPGSEAQAQAQPFGSKKKRLLSVHDFDFEGDSDDSTQPQGHSLHLSSVPEARDSPQSLTDESCSEKAAPHKAEGLEEADTGASGCHSHPEEQPTSISPSRHGALAELCPPGGSHRMALGTAAALGSNVIRNEQLPLQYLADVDTSDEESIRAHVMASHHSKRRGRASSESQIFELNKHISAVECLLTYLENTVVPPLAKGLGAGVRTEADVEEEALRRKLEELTSNVSDQETSSEEEEAKDEKAEPNRDKSVGPLPQADPEVGTAAHQTNRQEKSPQDPGDPVQYNRTTDEELSELEDRVAVTASEVQQAESEVSDIESRIAALRAAGLTVKPSGKPRRKSNLPIFLPRVAGKLGKRPEDPNADPSSEAKAMAVPYLLRRKFSNSLKSQGKDDDSFDRKSVYRGSLTQRNPNARKGMASHTFAKPVVAHQS
3 | binds | Rab27B (protein, UniProt O00194 1-218) MTDGDYDYLIKLLALGDSGVGKTTFLYRYTDNKFNPKFITTVGIDFREKRVVYNAQGPNGSSGKAFKVHLQLWDTAGQERFRSLTTAFFRDAMGFLLMFDLTSQQSFLNVRNWMSQLQANAYCENPDIVLIGNKADLPDQREVNERQARELADKYGIPYFETSAATGQNVEKAVETLLDLIMKRMEQCVEKTQIPDTVNGGNSGNLDGEKPPEKKCIC
